Laboratory results: PubChem BioAssay AID1259266 (Sanger Institute, 2017)
Here is one part, drawn at random, of 794 reagents tested. In the full data, 16 (2%) were called active. 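Calls reflect knock-down alone, not drug synergy; viability seems capped at 1 and z-scores at 0.585.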 Entries without a mark were called inactive. Not given: the amount of reagent, the time to read-out.

Aim: 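Search kinases and colorectal cancer genes for essential genes and drug synergy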 (primary screen)
Cells: LS123 human colorectal cancer cells
Knock-down reagent: siRNA pool against human genes
Challenge: anchor drugs BYL719 (1 µM), cetuximab (5 µg/ml) or trametinib (10 nM), each chosen to barely slow growth alone; DMSO vehicle as the drug-free arm
Read-out: 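Viability relative to non-targeting control pools, replicate mean, with a robust z-score for knock-down alone and synergy scores for each anchor drug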
Direction: robust z-score, knock-down alone: higher = more cells surviving after knock-down; viability, knock-down alone: higher = more viable cells; synergy score with trametinib and synergy score with BYL719 and synergy score with cetuximab: higher = stronger synthetic lethality with drug
Rule for the call: 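Essential when the robust z-score of the knock-down alone is below -3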
Meaning of the calls: active = essential (knock-down alone cuts viability); inactive = no change

The first 3 entries, ahead of the listing:
Gene	robust z-score, knock-down alone	viability, knock-down alone (fraction of control)	synergy score with trametinib	synergy score with BYL719	synergy score with cetuximab
CKB	0.585	1	-0.186	-0.159	-0.0122
CSNK2A1	0.585	1	-0.0522	-0.159	-0.0122
PSKH2	-0.189	0.954	0.00581	-0.132	-0.0576

The list itself, repeating the preview:
Gene	robust z-score, knock-down alone	viability, knock-down alone (fraction of control)	synergy score with trametinib	synergy score with BYL719	synergy score with cetuximab
CKB	0.585	1	-0.186	-0.159	-0.0122
CSNK2A1	0.585	1	-0.0522	-0.159	-0.0122
PSKH2	-0.189	0.954	0.00581	-0.132	-0.0576
CAMK1	0.585	1	-0.0781	-0.0362	0.000246
NEK3	-0.854	0.915	0.000662	0.0264	-0.017
PRKX	0.585	1	-0.0985	-0.152	-0.0122
GRK2	0.579	1	0.133	-0.0673	0.0312
AXL	0.585	1	-0.0743	-0.0437	-0.0122
PTGS1	-0.651	0.927	0.0264	-0.0816	-0.0847
CDKL2	-0.609	0.929	0.0652	-0.0428	0.0881
PRKAG3	-1.93	0.851	-0.00453	-0.0184	0.106
TBCK	0.585	1	-0.097	-0.115	-0.0122
CRKL	0.585	1	-0.135	-0.159	-0.0122
ERN1	0.585	1	-0.0721	-0.0665	-0.0122
PKDCC	0.585	1	-0.0211	-0.0807	-0.0122
RTN4	0.334	0.985	-0.0718	0.0123	0.0583
FES	-1.78	0.859	-0.0657	-0.0551	0.0581
PLK1	-3.4 (active)	0.763	0.014	-0.108	-0.0035
SMC1A	-2.48	0.818	-0.00121	-0.0583	-0.0837
STK10	0.294	0.983	-0.0758	-0.0904	-0.0293
CDKN2B	0.585	1	-0.0753	-0.159	-0.0122
AAK1	-2.13	0.839	-0.0525	0.0305	0.0977
LIMK1	0.0093	0.966	-0.124	-0.0828	-0.046
FGR	-0.855	0.914	-0.0527	-0.00784	-0.0262
GUK1	0.585	1	-0.11	-0.088	-0.0122
NME3	-0.957	0.908	-0.146	-0.18	-0.0768
DGUOK	-1.58	0.871	-0.0902	-0.148	-0.1
ETNK2	-0.461	0.938	-0.0234	-0.071	-0.000145
NEK2	-0.884	0.913	-0.0196	-0.146	0.0128
CDADC1	0.585	1	-0.0668	-0.0622	-0.0122
TEC	0.245	0.98	-0.0679	-0.132	0.00488
LMTK3	0.585	1	0.0351	0.0397	0.0102
MERTK	0.585	1	-0.0792	-0.103	-0.0122
PIP5K1C	0.585	1	-0.135	-0.121	-0.0122
CAMKK1	0.533	0.997	-0.0393	-0.101	0.00749
TBX3	0.585	1	-0.111	-0.0657	-0.0122
PRKACB	0.585	1	-0.0586	-0.0635	0.0343
PRKY	-1.03	0.904	-0.149	-0.0599	-0.102
PINK1	0.571	0.999	-0.0184	0.00703	0.0496
COMMD3	0.585	1	0.00564	0.00413	-0.0122
DUSP21	-0.238	0.951	-0.0806	-0.12	-0.0144
TESK1	-0.0311	0.963	-0.0514	0.00592	-0.0484
HCK	0.585	1	-0.139	-0.142	-0.0122
MAP3K9	-5.79 (active)	0.621	0.0403	0.0523	0.0942
SMG1	0.399	0.989	-0.0602	-0.0329	0.0257
WNK4	0.585	1	-0.0927	-0.159	-0.0122
PRKAR2B	-1.4	0.882	-0.017	-0.0811	-0.0179
CDKN2C	0.585	1	-0.0867	-0.0816	-0.0122
POLR2B	-3.28 (active)	0.77	-0.0561	-0.128	0.000222
PKN2	-2.56	0.813	-0.0684	-0.193	-0.135
